Values from PubChem BioAssay AID1259308 (NCATS, 2017).

Aim: 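Genes whose loss raises luciferase production in HEK293 cells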 (primary screen)
Cell system: human HEK293 embryonic kidney cells stably expressing firefly luciferase (HEK-CMV-Luc2-Hygro)
Knock-down reagent: single siRNA against human genes, 0.8 pmol siRNA per well
Time to read-out: 72 h
Measurement: 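Reporter luminescence and viable-cell signal on separate replicate plates, given as percent of non-targeting control and median/MAD z-scores, plus per-cell luciferase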
Direction: total luciferase, z-score and total luciferase, % of control: higher = more reporter protein produced; luciferase per cell, z-score: higher = more reporter output per viable cell
Active means: 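Active when the median/MAD z-score for overall luciferase is greater than 3; a gene was taken forward for validation with new siRNAs if at least two of its three siRNAs passed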
Meaning of the calls: active = raised luciferase; inactive = no rise
Here is a random part of about 59,000 reagents. About 1,510 of them (2.6%) were called active. 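Calls use total luciferase alone and ignore viability, so some active siRNAs may act by altering cell number.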 A number with no mark means an inactive call. The numbers tell different reagents against one gene apart. Further read-outs or replicates are left out here. No sequences are given here.

gene knocked down | siRNA no. | total luciferase, z-score | total luciferase, % of control | luciferase per cell, z-score
SEMA3E (semaphorin 3E) | 1 | -0.893 | 64.1 | -1.04
SEMA3E (semaphorin 3E) | 2 | 0.728 | 96.4 | 0.488
SEMA3E (semaphorin 3E) | 3 | -0.178 | 78.3 | -0.48
LINC00863 (long independently transcribed non-coding RNA 863) | 1 | -1.22 | 57.7 | -0.802
LINC00863 (long independently transcribed non-coding RNA 863) | 2 | 1.48 | 111 | 0.44
LINC00863 (long independently transcribed non-coding RNA 863) | 3 | 2.01 | 122 | 1.48
DIS3 (DIS3 exosome endoribonuclease and 3'-5' exoribonuclease) | 1 | -0.0256 | 81.4 | 0.184
DIS3 (DIS3 exosome endoribonuclease and 3'-5' exoribonuclease) | 2 | 0.284 | 87.5 | 1.13
DIS3 (DIS3 exosome endoribonuclease and 3'-5' exoribonuclease) | 3 | 0.39 | 89.6 | 0.269
MOB3B (MOB kinase activator 3B) | 1 | -0.157 | 78.8 | -0.231
MOB3B (MOB kinase activator 3B) | 2 | 1.15 | 105 | 1.52
MOB3B (MOB kinase activator 3B) | 3 | -2.83 | 25.6 | -3.32
EPYC (epiphycan) | 1 | -0.942 | 63.1 | -0.907
EPYC (epiphycan) | 2 | 0.468 | 91.2 | -0.0164
EPYC (epiphycan) | 3 | 0.207 | 86 | 0.173
PABPC3 (poly(A) binding protein cytoplasmic 3) | 1 | 0.604 | 93.9 | 0.103
PABPC3 (poly(A) binding protein cytoplasmic 3) | 2 | 2.96 | 141 | 3.02
PABPC3 (poly(A) binding protein cytoplasmic 3) | 3 | 0.386 | 89.6 | 0.257
FGF18 (fibroblast growth factor 18) | 1 | 0.899 | 99.8 | 0.047
FGF18 (fibroblast growth factor 18) | 2 | -1.16 | 58.8 | -0.261
FGF18 (fibroblast growth factor 18) | 3 | -1.04 | 61.2 | -1.78
SPATC1L (spermatogenesis and centriole associated 1 like) | 1 | 0.452 | 90.9 | 0.127
SPATC1L (spermatogenesis and centriole associated 1 like) | 2 | -0.697 | 68 | -1.18
SPATC1L (spermatogenesis and centriole associated 1 like) | 3 | -0.143 | 79.1 | -0.452
PRSS55 (serine protease 55) | 1 | 0.349 | 88.8 | 0.462
PRSS55 (serine protease 55) | 2 | 0.268 | 87.2 | -0.586
PRSS55 (serine protease 55) | 3 | 3.11 (active) | 144 | 1.28
GOLGA2 (golgin A2) | 1 | -0.565 | 70.6 | 0.0102
GOLGA2 (golgin A2) | 2 | 0.955 | 101 | 1.23
GOLGA2 (golgin A2) | 3 | 1.05 | 103 | 0.358
PIBF1 (progesterone immunomodulatory binding factor 1) | 1 | -0.879 | 64.4 | -1.27
PIBF1 (progesterone immunomodulatory binding factor 1) | 2 | -0.241 | 77.1 | -0.395
PIBF1 (progesterone immunomodulatory binding factor 1) | 3 | -1.4 | 54.1 | -1.06

The list goes on; the last 7 above are carried over.
gene knocked down | siRNA no. | total luciferase, z-score | total luciferase, % of control | luciferase per cell, z-score
PRSS55 (serine protease 55) | 3 | 3.11 (active) | 144 | 1.28
GOLGA2 (golgin A2) | 1 | -0.565 | 70.6 | 0.0102
GOLGA2 (golgin A2) | 2 | 0.955 | 101 | 1.23
GOLGA2 (golgin A2) | 3 | 1.05 | 103 | 0.358
PIBF1 (progesterone immunomodulatory binding factor 1) | 1 | -0.879 | 64.4 | -1.27
PIBF1 (progesterone immunomodulatory binding factor 1) | 2 | -0.241 | 77.1 | -0.395
PIBF1 (progesterone immunomodulatory binding factor 1) | 3 | -1.4 | 54.1 | -1.06
LOXL3 (lysyl oxidase like 3) | 1 | -0.224 | 77.4 | -0.347
LOXL3 (lysyl oxidase like 3) | 2 | -0.49 | 72.1 | -0.691
LOXL3 (lysyl oxidase like 3) | 3 | 0.705 | 95.9 | 0.335
CHST6 (carbohydrate sulfotransferase 6) | 1 | 0.0187 | 82.3 | -0.584
CHST6 (carbohydrate sulfotransferase 6) | 2 | 2.7 | 136 | 2.35
CHST6 (carbohydrate sulfotransferase 6) | 3 | 1.33 | 108 | 0.978
RAD23B (RAD23 nucleotide excision repair protein B) | 1 | 0.963 | 101 | 0.848
RAD23B (RAD23 nucleotide excision repair protein B) | 2 | 1.03 | 102 | 0.499
RAD23B (RAD23 nucleotide excision repair protein B) | 3 | 1.07 | 103 | 1.64
ABTB3 (ankyrin repeat and BTB domain containing 3) | 1 | -1.59 | 50.2 | -1.71
ABTB3 (ankyrin repeat and BTB domain containing 3) | 2 | -0.631 | 69.3 | -0.384
ABTB3 (ankyrin repeat and BTB domain containing 3) | 3 | -0.4 | 73.9 | -0.159
GON7 (GON7 subunit of KEOPS complex) | 1 | -0.192 | 78.1 | -0.551
GON7 (GON7 subunit of KEOPS complex) | 2 | -0.422 | 73.5 | -0.434
GON7 (GON7 subunit of KEOPS complex) | 3 | -1.19 | 58.3 | -0.245
CREB5 (cAMP responsive element binding protein 5) | 1 | -0.293 | 76.1 | -0.123
CREB5 (cAMP responsive element binding protein 5) | 2 | 0.492 | 91.7 | -0.00046
CREB5 (cAMP responsive element binding protein 5) | 3 | -0.864 | 64.7 | -1.96
CREB5 (cAMP responsive element binding protein 5) | 4 | -0.427 | 73.4 | -0.957
CREB5 (cAMP responsive element binding protein 5) | 5 | -0.444 | 73.1 | 1.03
CREB5 (cAMP responsive element binding protein 5) | 6 | -1.31 | 55.9 | -0.891
SPATA20 (spermatogenesis associated 20) | 1 | -1.8 | 46 | -1.29
SPATA20 (spermatogenesis associated 20) | 2 | 0.694 | 95.7 | 0.985
SPATA20 (spermatogenesis associated 20) | 3 | 2.14 | 125 | 1.72
